Here are results for two molecules from patent publication US20100329980A1 (GENE TECHNO SCIENCE, published 2010).

The target in experiment [1] is T1, human α9 integrin (human) (UniProt Q13797).
T1 sequence: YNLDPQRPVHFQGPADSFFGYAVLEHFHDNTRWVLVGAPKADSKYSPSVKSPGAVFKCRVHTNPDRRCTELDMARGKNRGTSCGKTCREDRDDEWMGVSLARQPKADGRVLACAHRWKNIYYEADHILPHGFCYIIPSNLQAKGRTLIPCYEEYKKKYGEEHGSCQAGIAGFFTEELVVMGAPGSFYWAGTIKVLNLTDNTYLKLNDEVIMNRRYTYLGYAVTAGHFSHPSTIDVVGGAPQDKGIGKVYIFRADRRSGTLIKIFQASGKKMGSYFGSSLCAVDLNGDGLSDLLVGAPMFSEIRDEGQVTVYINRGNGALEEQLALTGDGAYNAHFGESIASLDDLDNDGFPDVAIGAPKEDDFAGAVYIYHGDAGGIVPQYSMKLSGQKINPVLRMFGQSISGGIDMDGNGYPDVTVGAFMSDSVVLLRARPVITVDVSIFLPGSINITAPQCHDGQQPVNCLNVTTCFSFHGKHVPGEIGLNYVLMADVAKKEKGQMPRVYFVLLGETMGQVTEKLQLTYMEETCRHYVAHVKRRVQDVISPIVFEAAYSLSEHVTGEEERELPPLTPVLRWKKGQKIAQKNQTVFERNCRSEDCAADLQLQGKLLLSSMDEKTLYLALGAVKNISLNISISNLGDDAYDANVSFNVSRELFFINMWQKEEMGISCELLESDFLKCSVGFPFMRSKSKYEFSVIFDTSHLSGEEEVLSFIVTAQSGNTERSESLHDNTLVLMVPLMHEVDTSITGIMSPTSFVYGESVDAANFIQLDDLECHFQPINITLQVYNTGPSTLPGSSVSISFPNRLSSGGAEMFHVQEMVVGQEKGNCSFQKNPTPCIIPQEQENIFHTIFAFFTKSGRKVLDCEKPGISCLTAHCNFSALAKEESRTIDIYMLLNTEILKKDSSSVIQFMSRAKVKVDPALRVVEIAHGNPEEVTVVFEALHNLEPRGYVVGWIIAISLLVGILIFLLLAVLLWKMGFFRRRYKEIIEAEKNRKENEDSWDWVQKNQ
Kind of experiment: FACS on CHO/huα9 cells, FITC anti-human IgG.

The target of experiment [2] is T1, human α9 integrin (human). Kind of experiment: cell ELISA on CHO/huα9 cells, HRP anti-human IgG. A general note: In an ELISA, binding on a coated surface is turned into a signal by an enzyme label.
For experiment [3], the target named is T1, human α9 integrin (human). The experiment can be described thus: hybridoma screening on transfected CHO-K1 cells.
The target in experiment [4] is T1, human α9 integrin (human). Kind of experiment: FACS on Human α9/CHO-K1 cells and human neutrophils, FITC-labeled anti-mouse IgG secondary.

No constants are given. Whether binding was seen depends on the method and setting. Some binding calls cover weakened binding; strength is not graded here.

B1: humanized 24I11 IgG1/κ antibody (antibody, V domains shown)
VH: QVQLVQSGAEVKKPGASVKVSCKASGFNIKDTYVHWVRQAPGQRLEWIGNIDPANGNTKYDPKFQGKATITADTSASTAYMELSSLRSEDTAVYYCARWLRHFYYAMDYWGQGTLVTVSS
VL: DIQMTQSPSSLSASVGDRVTITCRASENIYYSLAWYQQKPGKAPKLLIYNANSLEDGVPSRFSGSGSGTQYTLTISSLQPEDFATYYCKQAYDVPYTFGQGTKVEIK
With B1, the binding entry in experiment [1] and in experiment [2] was “binds” throughout.

B2: 28S1 mouse anti-human α9 integrin monoclonal antibody (FERM BP-10832) (antibody, mouse IgG1, V domains shown)
VH: VKLQESGPGLVAPSQSLSITCTVSGFSLTGYGVNWVRQPPGKGLEWLGMIWGDGITEYNSALKSRLSISKDNSKSQVFLKMNSLQTDDTARYYCARDASSGYGFAYWGQGTTVTVSS
VL: YIVLTQSPAIMSASLGERVTMTCTASSSVSSSYLHWYQQKPGSSPKLWIYSTSNLASGVPARFSGSGSGTSYSLTISSMEAEDAATYYCHQYHRSPYTFGGGTKLEIKR
notes: Mouse IgG1 from hybridoma
Turning to B2, the binding result in experiment [3] and in experiment [4] was “binds” throughout.
